Results taken from paper PMC10108392, “Rimonabant-Based Compounds Bearing Hydrophobic Amino Acid Derivatives as Cannabinoid Receptor Subtype 1 Ligands” (ACS Medicinal Chemistry Letters, 2023).

By UniProt entry, the sequences of proteins in these tests, tags left out.
UniProt P20272, whole entry: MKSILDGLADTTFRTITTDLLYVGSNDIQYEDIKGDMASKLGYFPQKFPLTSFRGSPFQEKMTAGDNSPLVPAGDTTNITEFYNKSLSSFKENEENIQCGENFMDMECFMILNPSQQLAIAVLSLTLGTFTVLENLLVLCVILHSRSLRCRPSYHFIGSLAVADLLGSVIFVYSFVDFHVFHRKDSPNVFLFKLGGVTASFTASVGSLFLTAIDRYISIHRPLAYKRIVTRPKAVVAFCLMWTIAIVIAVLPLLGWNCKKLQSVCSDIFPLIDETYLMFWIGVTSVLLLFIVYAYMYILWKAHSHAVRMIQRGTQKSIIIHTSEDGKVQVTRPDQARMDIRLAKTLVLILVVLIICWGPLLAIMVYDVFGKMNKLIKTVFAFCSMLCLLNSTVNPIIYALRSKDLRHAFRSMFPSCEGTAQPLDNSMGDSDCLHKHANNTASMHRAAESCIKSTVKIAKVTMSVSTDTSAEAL

Columns and labels:
CB1R = CB1R (Rattus norvegicus, UniProt P20272); assay: Ligand stimulated [35S]GTPγS binding assay in rat brain membranes; type: biochemical; conditions: basal [35S]GTPγS binding set as 100%, ± SEM
mice = assay: Feeding test (food intake); type: in vivo, mouse; conditions: 10 mg/kg i.p., 1-h test, vs vehicle

SMILES | [35S]GTPγS stimulation Emax (CB1R) [%] | food intake (mice)
Cc1c(C(=O)N[C@H](C(N)=O)C(C)C)nn(-c2ccc(Cl)cc2Cl)c1-n1cccc1Cl | 60 ± 2.9 | –
Cc1c(C(=O)N[C@H](C(N)=O)C(C)(C)C)nn(-c2ccc(Cl)cc2Cl)c1-n1cccc1Cl | 70 ± 7 | slight reduction in food intake

The match of structure and compound is tentative.
